Laboratory results as given in the supplement of paper PMC10849652.
The other results are listed elsewhere or left out.

Sequences of proteins named here, by UniProt entry; tags and fusion partners are left off. A change or cut given only in a name is not applied to a line headed by its entry.
UniProt Q14974, whole entry, looked up: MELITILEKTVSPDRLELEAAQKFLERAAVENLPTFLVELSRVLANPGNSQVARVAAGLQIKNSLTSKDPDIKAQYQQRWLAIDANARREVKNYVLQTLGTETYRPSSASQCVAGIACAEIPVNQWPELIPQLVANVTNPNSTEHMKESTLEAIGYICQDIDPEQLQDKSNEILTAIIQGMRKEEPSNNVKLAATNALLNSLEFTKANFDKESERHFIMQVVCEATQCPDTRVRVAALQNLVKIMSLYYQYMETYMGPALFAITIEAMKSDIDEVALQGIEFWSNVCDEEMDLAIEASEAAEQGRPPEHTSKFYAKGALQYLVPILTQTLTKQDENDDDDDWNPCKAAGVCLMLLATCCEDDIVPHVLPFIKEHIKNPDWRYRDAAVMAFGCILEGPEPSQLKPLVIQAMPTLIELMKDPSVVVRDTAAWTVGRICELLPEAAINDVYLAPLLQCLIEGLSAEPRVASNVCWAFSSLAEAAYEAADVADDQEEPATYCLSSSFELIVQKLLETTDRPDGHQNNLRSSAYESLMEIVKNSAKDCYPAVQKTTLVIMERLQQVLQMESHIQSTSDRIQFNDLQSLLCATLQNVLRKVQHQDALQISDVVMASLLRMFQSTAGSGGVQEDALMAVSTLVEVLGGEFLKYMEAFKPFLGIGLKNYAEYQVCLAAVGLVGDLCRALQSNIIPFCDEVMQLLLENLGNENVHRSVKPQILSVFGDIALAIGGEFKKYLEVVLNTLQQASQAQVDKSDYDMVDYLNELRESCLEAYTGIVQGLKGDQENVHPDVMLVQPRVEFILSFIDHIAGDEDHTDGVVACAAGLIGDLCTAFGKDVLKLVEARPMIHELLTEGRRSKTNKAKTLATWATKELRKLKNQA
UniProt O43813, whole entry, looked up: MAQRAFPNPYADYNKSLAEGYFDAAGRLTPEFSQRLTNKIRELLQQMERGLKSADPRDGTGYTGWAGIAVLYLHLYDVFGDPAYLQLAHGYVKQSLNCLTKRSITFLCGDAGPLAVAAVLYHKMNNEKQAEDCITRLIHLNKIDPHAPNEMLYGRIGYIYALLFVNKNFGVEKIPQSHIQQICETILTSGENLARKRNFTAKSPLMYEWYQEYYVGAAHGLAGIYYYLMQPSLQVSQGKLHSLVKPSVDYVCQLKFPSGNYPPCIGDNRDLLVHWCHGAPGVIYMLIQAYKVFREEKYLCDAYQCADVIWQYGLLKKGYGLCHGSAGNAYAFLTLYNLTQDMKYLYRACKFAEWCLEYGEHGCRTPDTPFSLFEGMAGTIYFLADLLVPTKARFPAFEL
UniProt Q92945: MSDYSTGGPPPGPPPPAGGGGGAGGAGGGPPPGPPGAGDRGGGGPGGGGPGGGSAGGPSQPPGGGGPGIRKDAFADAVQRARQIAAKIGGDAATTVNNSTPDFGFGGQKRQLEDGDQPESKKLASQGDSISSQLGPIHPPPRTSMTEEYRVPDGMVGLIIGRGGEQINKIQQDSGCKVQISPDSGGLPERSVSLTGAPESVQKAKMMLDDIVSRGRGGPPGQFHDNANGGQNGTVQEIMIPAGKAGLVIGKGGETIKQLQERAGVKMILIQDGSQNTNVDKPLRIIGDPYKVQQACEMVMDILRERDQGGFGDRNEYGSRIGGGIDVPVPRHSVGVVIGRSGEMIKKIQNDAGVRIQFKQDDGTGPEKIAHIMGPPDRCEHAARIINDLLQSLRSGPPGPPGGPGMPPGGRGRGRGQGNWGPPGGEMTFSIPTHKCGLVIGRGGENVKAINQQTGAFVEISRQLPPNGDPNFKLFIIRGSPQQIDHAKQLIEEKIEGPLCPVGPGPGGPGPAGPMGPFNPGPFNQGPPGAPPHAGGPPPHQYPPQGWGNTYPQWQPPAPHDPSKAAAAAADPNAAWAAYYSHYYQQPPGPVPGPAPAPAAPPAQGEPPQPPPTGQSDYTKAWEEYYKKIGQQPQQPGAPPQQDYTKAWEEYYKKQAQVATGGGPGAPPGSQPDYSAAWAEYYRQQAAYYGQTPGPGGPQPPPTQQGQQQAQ
UniProt Q9BQ90: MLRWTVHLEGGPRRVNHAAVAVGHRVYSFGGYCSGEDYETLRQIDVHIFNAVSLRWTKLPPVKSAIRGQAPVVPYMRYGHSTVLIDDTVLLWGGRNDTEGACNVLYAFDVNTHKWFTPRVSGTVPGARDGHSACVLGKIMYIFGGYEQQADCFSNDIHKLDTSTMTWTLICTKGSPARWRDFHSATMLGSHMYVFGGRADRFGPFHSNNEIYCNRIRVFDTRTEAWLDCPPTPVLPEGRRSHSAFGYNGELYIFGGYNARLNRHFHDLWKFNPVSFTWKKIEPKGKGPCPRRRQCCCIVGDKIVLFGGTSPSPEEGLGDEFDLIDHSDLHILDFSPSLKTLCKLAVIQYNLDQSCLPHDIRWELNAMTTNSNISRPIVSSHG
UniProt Q14807: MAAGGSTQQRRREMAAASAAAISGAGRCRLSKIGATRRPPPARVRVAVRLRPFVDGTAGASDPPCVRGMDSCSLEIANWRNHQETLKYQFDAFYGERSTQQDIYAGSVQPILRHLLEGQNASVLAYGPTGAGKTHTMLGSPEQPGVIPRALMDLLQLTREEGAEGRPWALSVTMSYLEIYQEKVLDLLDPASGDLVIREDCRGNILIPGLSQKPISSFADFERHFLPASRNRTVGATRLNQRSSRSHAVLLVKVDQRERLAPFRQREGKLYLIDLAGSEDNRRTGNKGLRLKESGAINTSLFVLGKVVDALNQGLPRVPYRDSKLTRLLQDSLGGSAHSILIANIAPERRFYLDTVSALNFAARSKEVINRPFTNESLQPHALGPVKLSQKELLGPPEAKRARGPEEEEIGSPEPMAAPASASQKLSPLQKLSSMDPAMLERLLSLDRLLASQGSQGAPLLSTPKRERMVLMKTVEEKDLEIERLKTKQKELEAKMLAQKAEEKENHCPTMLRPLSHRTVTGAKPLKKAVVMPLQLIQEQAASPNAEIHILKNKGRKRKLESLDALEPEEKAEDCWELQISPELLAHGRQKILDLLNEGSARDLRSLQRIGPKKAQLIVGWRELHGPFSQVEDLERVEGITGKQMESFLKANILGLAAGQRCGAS
UniProt Q9P2J5: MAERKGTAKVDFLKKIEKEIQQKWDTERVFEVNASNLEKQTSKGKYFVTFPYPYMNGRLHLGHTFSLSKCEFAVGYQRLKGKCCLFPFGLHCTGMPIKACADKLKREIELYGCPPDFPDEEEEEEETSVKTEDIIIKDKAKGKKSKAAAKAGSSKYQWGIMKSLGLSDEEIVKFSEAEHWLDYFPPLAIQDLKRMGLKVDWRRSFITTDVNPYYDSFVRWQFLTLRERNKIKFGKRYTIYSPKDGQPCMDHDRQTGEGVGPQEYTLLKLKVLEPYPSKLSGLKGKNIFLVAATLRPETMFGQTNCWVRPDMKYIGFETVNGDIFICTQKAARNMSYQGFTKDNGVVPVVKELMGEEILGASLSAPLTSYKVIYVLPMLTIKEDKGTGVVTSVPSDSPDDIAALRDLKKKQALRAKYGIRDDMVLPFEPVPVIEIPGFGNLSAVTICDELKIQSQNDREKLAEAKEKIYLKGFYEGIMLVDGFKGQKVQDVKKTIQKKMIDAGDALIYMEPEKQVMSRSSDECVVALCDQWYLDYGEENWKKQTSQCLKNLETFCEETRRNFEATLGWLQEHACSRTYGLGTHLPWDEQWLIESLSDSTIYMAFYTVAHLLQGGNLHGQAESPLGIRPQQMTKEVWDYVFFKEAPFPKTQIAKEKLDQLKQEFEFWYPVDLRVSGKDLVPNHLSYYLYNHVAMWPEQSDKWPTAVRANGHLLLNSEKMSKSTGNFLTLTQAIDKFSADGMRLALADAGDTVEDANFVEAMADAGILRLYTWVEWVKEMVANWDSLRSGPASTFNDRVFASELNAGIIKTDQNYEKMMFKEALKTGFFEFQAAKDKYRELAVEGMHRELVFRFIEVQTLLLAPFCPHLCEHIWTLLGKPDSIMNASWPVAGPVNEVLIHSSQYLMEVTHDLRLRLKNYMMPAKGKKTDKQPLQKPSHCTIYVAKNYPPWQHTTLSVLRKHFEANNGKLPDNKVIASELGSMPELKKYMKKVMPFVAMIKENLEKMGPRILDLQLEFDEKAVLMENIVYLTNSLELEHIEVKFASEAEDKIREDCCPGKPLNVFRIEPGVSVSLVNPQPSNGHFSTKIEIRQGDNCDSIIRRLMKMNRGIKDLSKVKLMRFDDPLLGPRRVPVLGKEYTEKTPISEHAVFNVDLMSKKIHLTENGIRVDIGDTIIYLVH
UniProt Q1ED39: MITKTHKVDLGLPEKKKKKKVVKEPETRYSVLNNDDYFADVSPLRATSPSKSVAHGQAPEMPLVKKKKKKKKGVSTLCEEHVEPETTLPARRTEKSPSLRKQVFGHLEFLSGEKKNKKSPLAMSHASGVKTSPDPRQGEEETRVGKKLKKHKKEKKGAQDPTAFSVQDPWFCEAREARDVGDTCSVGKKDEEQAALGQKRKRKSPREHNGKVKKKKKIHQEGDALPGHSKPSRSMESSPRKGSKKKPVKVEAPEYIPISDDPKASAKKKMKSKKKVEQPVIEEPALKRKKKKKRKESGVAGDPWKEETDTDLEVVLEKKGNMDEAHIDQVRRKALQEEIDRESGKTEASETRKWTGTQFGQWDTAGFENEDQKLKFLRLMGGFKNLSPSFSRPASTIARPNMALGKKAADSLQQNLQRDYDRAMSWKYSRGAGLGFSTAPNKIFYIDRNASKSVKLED
UniProt Q14145, whole entry, looked up: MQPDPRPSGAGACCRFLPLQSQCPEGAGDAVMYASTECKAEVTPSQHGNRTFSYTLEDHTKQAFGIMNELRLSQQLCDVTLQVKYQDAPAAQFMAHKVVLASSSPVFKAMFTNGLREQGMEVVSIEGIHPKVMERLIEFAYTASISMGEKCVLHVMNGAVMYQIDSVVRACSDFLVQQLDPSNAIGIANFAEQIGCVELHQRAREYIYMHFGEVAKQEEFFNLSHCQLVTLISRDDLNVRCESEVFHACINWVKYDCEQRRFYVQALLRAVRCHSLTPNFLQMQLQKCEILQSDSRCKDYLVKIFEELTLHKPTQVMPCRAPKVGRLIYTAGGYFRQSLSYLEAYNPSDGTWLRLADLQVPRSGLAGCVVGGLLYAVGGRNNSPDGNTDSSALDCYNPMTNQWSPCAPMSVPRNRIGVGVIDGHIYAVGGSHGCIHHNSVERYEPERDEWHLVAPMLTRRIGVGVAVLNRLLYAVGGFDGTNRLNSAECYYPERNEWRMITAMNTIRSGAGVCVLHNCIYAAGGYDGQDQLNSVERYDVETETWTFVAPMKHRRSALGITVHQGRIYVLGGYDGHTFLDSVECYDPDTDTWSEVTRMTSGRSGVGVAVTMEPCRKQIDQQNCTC
UniProt Q6YP21: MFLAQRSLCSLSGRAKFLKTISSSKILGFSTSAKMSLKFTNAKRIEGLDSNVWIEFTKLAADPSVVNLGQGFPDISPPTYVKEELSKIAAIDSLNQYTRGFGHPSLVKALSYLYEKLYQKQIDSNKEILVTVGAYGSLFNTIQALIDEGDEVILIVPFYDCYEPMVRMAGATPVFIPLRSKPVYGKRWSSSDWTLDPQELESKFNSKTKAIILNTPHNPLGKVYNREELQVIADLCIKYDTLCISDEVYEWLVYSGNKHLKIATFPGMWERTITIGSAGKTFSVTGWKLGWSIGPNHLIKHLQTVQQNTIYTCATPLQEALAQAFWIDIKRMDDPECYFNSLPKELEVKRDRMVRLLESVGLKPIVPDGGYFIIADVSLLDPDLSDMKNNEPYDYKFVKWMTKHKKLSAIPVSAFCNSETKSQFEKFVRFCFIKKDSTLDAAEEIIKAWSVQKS
UniProt Q53H82: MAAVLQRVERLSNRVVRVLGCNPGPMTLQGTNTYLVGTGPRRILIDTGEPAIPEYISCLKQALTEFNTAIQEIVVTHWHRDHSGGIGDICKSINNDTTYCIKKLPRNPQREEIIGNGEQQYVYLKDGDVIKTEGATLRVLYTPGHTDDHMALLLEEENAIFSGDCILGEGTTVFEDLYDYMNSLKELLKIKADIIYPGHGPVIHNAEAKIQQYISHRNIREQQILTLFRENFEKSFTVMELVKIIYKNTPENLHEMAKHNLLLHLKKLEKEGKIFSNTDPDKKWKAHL
UniProt Q14657: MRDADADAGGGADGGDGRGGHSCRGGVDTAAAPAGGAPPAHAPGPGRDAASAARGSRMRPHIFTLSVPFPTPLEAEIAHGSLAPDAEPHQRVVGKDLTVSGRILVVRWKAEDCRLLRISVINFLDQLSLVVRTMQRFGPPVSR

Tests used:
Assay in all cases: log2 fold change, soluble protein after heating vs DMSO (PISA); higher = thermal stabilisation; K562 lysate, 10 uM; active = over 0.2 and 3.5 SD of the protein, either way, in both replicates (recomputed)
vemurafenib = compound: CCCS(=O)(=O)Nc1ccc(F)c(C(=O)c2c[nH]c3ncc(-c4ccc(Cl)cc4)cc23)c1F [vemurafenib]
Outline: (§1)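 Pellets of K562 cells were dounce-homogenised in PBS pH 7.4 with 1 mM MgCl2, and the crude extract was held at 1 mg/mL protein for a 30 min treatment with 10 μM compound. Aliquots were heated for 3 min over 48°C-58°C and pooled before NP-40 was added to 0.5% at 4°C. The supernatant from 21,000xg for 90 min was quantified by TMTpro 16plex LC-MS/MS with channel sums equalised. Values are reported from duplicates as log-two fold change in thermal stability relative to solvent controls.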

[1] = compound: CCCS(=O)(=O)Nc1ccc(F)c(C(=O)c2c[nH]c3ncc(Cl)cc23)c1F
Outline: as §1

barasertib = compound: CCN(CCCOc1ccc2c(Nc3cc(CC(=O)Nc4cccc(F)c4)[nH]n3)ncnc2c1)CCOP(=O)(O)O [barasertib]
Outline: as §1

[2] = compound: CC[C@@H]1C(=O)N(C)c2cnc(Nc3ccc(C(=O)NC4CCN(C)CC4)cc3OC)nc2N1C1CCCC1
Outline: as §1

volasertib = compound: CC[C@@H]1C(=O)N(C)c2cnc(Nc3ccc(C(=O)N[C@H]4CC[C@H](N5CCN(CC6CC6)CC5)CC4)cc3OC)nc2N1C(C)C [volasertib]
Outline: as §1

[3] = compound: CCn1c(C(=O)N(C2CC2)C2CC2)cc2c3c(ncn3C)c(Nc3cc(C)n(C)n3)nc21
Outline: as §1

[4] = compound: CCn1cc(-c2ccnc3[nH]c(-c4cccc(CN(C)C)c4)cc23)c(-c2ccc(NC(=O)N(C)C)cc2)n1
Outline: as §1

[5] = compound: CN1CCC(CNc2ccc3ncc(-c4cccc(OC(F)(F)F)c4)n3n2)CC1
Outline: as §1

saracatinib = compound: CN1CCN(CCOc2cc(OC3CCOCC3)c3c(Nc4c(Cl)ccc5c4OCO5)ncnc3c2)CC1 [saracatinib]
Outline: as §1

sotrastaurin = compound: CN1CCN(c2nc(C3=C(c4c[nH]c5ccccc45)C(=O)NC3=O)c3ccccc3n2)CC1 [sotrastaurin]
Outline: as §1

alvocidib = compound: CN1CC[C@H](c2c(O)cc(O)c3c(=O)cc(-c4ccccc4Cl)oc23)[C@H](O)C1 [alvocidib]
Outline: as §1

Tubastatin A = compound: CN1CCc2c(c3ccccc3n2Cc2ccc(C(=O)NO)cc2)C1 [Tubastatin A]
Outline: as §1

[6] = compound: CNC(=O)C1=CC=CC=C1NC2=NC(=NC=C2Cl)NC3=C(C=C(C=C3)N4CCOCC4)OC
Outline: as §1

defactinib = compound: CNC(=O)c1ccc(Nc2ncc(C(F)(F)F)c(NCc3nccnc3N(C)S(C)(=O)=O)n2)cc1 [defactinib]
Outline: as §1

[7] = compound: CNc1nc(-c2ccc3c(N)n[nH]c3c2)cc(N2C[C@@H](C(=O)NC3CCCCC3)CC[C@H]2C)n1
Outline: as §1

encorafenib = compound: COC(=O)N[C@@H](C)CNc1nccc(-c2cn(C(C)C)nc2-c2cc(Cl)cc(NS(C)(=O)=O)c2F)n1 [encorafenib]
Outline: as §1

[8] = compound: COC(=O)[C@H](CCSC)NC(=O)C1=C(C=C(C=C1)NC[C@H](CS)N)C2=CC=CC=C2
Outline: as §1

alisertib = compound: COc1cc(Nc2ncc3c(n2)-c2ccc(Cl)cc2C(c2c(F)cccc2OC)=NC3)ccc1C(=O)O [alisertib]
Outline: as §1

[9] = compound: COc1cc2nc(-c3cc(F)ccc3O)nc(N[C@@H]3CNC[C@H]3C(C)(C)O)c2cc1OC
Outline: as §1

gefitinib = compound: COc1cc2ncnc(Nc3ccc(F)c(Cl)c3)c2cc1OCCCN1CCOCC1 [gefitinib]
Outline: as §1

Target	log2 fold change (vemurafenib)	log2 fold change [1]	log2 fold change (barasertib)	log2 fold change [2]	log2 fold change (volasertib)	log2 fold change [3]	log2 fold change [4]	log2 fold change [5]	log2 fold change (saracatinib)	log2 fold change (sotrastaurin)	log2 fold change (alvocidib)	log2 fold change (Tubastatin A)	log2 fold change [6]	log2 fold change (defactinib)	log2 fold change [7]	log2 fold change (encorafenib)	log2 fold change [8]	log2 fold change (alisertib)	log2 fold change [9]	log2 fold change (gefitinib)
KPNB1 (UniProt Q14974)	inactive: 0.036	inactive: -0.006	inactive: -0.038	inactive: -0.004	inactive: -0.009	inactive: -0.021	inactive: 0	inactive: -0.023	inactive: 0.016	inactive: 0.008	inactive: 0.019	inactive: -0.005	inactive: 0.003	inactive: -0.021	inactive: -0.012	inactive: -0.006	inactive: 0.006	inactive: -0.002	inactive: 0.014	inactive: 0.005
LANCL1 (UniProt O43813)	inactive: -0.032	inactive: 0.015	inactive: -0.01	inactive: -0.145	inactive: -0.065	inactive: -0.031	inactive: 0.01	inactive: 0.039	inactive: 0.008	inactive: -0.022	inactive: -0.029	inactive: 0.031	inactive: 0	inactive: -0.003	inactive: -0.067	inactive: -0.011	inactive: 0.016	inactive: 0.009	inactive: 0.006	inactive: -0.024
KHSRP (UniProt Q92945)	inactive: -0.033	inactive: -0.01	inactive: -0.01	inactive: 0.036	inactive: 0.004	inactive: 0.032	inactive: 0.058	inactive: 0.004	inactive: 0.003	inactive: -0.001	inactive: -0.002	inactive: 0.042	inactive: -0.03	inactive: 0.005	inactive: -0.037	inactive: 0.029	inactive: -0.044	inactive: 0.03	inactive: -0.015	inactive: -0.004
KIF11 (UniProt P52732)	inactive: -0.027	inactive: 0.003	inactive: 0.023	inactive: -0.011	inactive: -0.024	inactive: 0.025	inactive: -0.055	inactive: 0.018	inactive: 0.023	inactive: 0.026	inactive: 0.008	inactive: -0.107	inactive: 0.035	inactive: -0.007	inactive: -0.022	inactive: 0.034	inactive: 0.032	inactive: -0.013	inactive: -0.003	inactive: 0.016
KNL1 (UniProt Q8NG31)	inactive: -0.031	inactive: 0.064	inactive: 0.011	inactive: -0.015	inactive: -0.044	inactive: -0.012	inactive: 0.015	inactive: 0	inactive: 0.006	inactive: 0.025	inactive: -0.008	inactive: -0.073	inactive: 0.024	inactive: -0.007	inactive: 0.018	inactive: 0.043	inactive: 0.055	inactive: -0.032	inactive: 0.004	inactive: 0.008
KLHDC3 (UniProt Q9BQ90)	inactive: -0.085	inactive: 0.046	inactive: 0.076	inactive: -0.03	inactive: 0.045	inactive: 0.065	inactive: 0.042	inactive: 0.043	inactive: 0.026	inactive: -0.01	inactive: -0.012	inactive: -0.062	inactive: 0.123	inactive: 0.079	inactive: -0.014	inactive: 0.123	inactive: -0.057	inactive: 0.018	inactive: 0.025	inactive: -0.05
KIF22 (UniProt Q14807)	inactive: -0.043	inactive: -0.049	inactive: 0.009	inactive: 0.088	inactive: 0.075	inactive: -0.189	inactive: -0.157	inactive: 0.308	inactive: 0.036	inactive: -0.084	inactive: -0.121	inactive: 0.099	inactive: -0.059	inactive: 0.175	inactive: 0.137	inactive: 0.012	inactive: -0.017	inactive: 0.011	inactive: 0.171	inactive: -0.013
LARS (UniProt Q9P2J5)	inactive: -0.005	inactive: 0.006	inactive: 0.006	inactive: -0.069	inactive: -0.063	inactive: 0.045	inactive: 0.008	inactive: -0.058	inactive: -0.023	inactive: -0.002	inactive: 0.051	inactive: -0.153	inactive: 0.006	inactive: 0.023	inactive: -0.054	inactive: 0.001	inactive: 0.097	inactive: 0.01	inactive: -0.013	inactive: -0.007
KNOP1 (UniProt Q1ED39)	inactive: -0.285	inactive: 0.026	inactive: -0.014	inactive: 0.315	inactive: 0.056	inactive: -0.161	inactive: 0.016	inactive: 0.012	inactive: -0.029	inactive: -0.063	inactive: -0.004	inactive: 0.151	inactive: 0.062	active: 0.413	inactive: 0.337	inactive: -0.023	inactive: 0.022	inactive: -0.065	inactive: 0.097	inactive: -0.03
KLC1 isoform 6 (UniProt Q07866)	inactive: 0.003	inactive: 0.004	inactive: -0.002	inactive: 0.012	inactive: -0.04	inactive: 0	inactive: 0.019	inactive: -0.063	inactive: 0.015	inactive: -0.011	inactive: -0.015	inactive: -0.038	inactive: 0.02	inactive: -0.003	inactive: -0.018	inactive: 0.002	inactive: 0.002	inactive: 0.002	inactive: 0.014	inactive: -0.009
LARP1 (UniProt Q6PKG0)	inactive: -0.018	inactive: 0.008	inactive: -0.012	inactive: -0.044	inactive: -0.021	inactive: 0.007	inactive: 0.016	inactive: -0.043	inactive: 0.011	inactive: -0.011	inactive: 0.032	inactive: -0.053	inactive: -0.026	inactive: -0.01	inactive: -0.038	inactive: -0.002	inactive: -0.011	inactive: 0.008	inactive: -0.005	inactive: -0.004
KEAP1 (UniProt Q14145)	inactive: 0.014	inactive: 0	inactive: 0.01	inactive: -0.008	inactive: -0.001	inactive: -0.016	inactive: -0.017	inactive: 0.044	inactive: -0.018	inactive: 0.033	inactive: -0.024	inactive: -0.019	inactive: -0.008	inactive: 0.014	inactive: 0.017	inactive: 0.043	inactive: -0.094	inactive: 0.012	inactive: 0.013	inactive: 0.018
L2HGDH (UniProt Q9H9P8)	inactive: -0.043	inactive: 0.018	inactive: -0.003	inactive: -0.077	inactive: 0.004	inactive: -0.002	inactive: 0.004	inactive: -0.047	inactive: 0.006	inactive: 0.023	inactive: -0.015	inactive: 0.073	inactive: 0.049	inactive: -0.005	inactive: -0.02	inactive: 0.016	inactive: 0.076	inactive: -0.005	inactive: -0.028	inactive: -0.023
KYAT3 (UniProt Q6YP21)	inactive: -0.034	inactive: 0.001	inactive: -0.034	inactive: -0.001	inactive: 0.025	inactive: 0.002	inactive: -0.17	inactive: 0.133	inactive: 0.02	inactive: -0.011	inactive: -0.051	inactive: 0.002	inactive: 0.004	inactive: 0.004	inactive: -0.061	inactive: -0.001	inactive: -0.073	inactive: -0.016	inactive: -0.001	inactive: 0.015
LACTB2 (UniProt Q53H82)	inactive: 0.01	inactive: 0.003	inactive: 0.004	inactive: 0.044	inactive: 0.011	inactive: -0.005	inactive: -0.033	inactive: 0.043	inactive: 0.012	inactive: -0.028	inactive: -0.007	inactive: 0.042	inactive: 0.015	inactive: -0.01	inactive: 0.005	inactive: -0.006	inactive: -0.023	inactive: -0.009	inactive: -0.009	inactive: 0.017
LAGE3 (UniProt Q14657)	inactive: 0.016	inactive: 0.004	inactive: 0.128	inactive: -0.032	inactive: 0.005	inactive: 0.058	inactive: -0.024	inactive: -0.003	inactive: 0.019	inactive: -0.024	inactive: -0.013	inactive: 0.004	inactive: -0.001	inactive: -0.194	inactive: -0.035	inactive: 0.047	inactive: -0.076	inactive: 0.224	inactive: -0.042	inactive: 0.107

Some of the entries so far, in CSV form.
Target,log2 fold change (vemurafenib),log2 fold change [1],log2 fold change (barasertib),log2 fold change [2],log2 fold change (volasertib),log2 fold change [3],log2 fold change [4],log2 fold change [5],log2 fold change (saracatinib),log2 fold change (sotrastaurin),log2 fold change (alvocidib),log2 fold change (Tubastatin A),log2 fold change [6],log2 fold change (defactinib),log2 fold change [7],log2 fold change (encorafenib),log2 fold change [8],log2 fold change (alisertib),log2 fold change [9],log2 fold change (gefitinib)
KNOP1 (UniProt Q1ED39),inactive: -0.285,inactive: 0.026,inactive: -0.014,inactive: 0.315,inactive: 0.056,inactive: -0.161,inactive: 0.016,inactive: 0.012,inactive: -0.029,inactive: -0.063,inactive: -0.004,inactive: 0.151,inactive: 0.062,active: 0.413,inactive: 0.337,inactive: -0.023,inactive: 0.022,inactive: -0.065,inactive: 0.097,inactive: -0.03
KLC1 isoform 6 (UniProt Q07866),inactive: 0.003,inactive: 0.004,inactive: -0.002,inactive: 0.012,inactive: -0.04,inactive: 0,inactive: 0.019,inactive: -0.063,inactive: 0.015,inactive: -0.011,inactive: -0.015,inactive: -0.038,inactive: 0.02,inactive: -0.003,inactive: -0.018,inactive: 0.002,inactive: 0.002,inactive: 0.002,inactive: 0.014,inactive: -0.009
